This assay concerns the target murine γ‐H2ax (mouse (endogenous in placental tissue)) (UniProt P27661). Description: co-IP; endogenous proteins in placental tissues of BaP‐exposed mice (and AS‐Ahr‐treated mice); limited (or excessive) and identical amount of γ‐H2ax antibody, Western blot, IgG as negative control. In general terms: A western blot detects proteins with antibodies after separation by electrophoresis.

Amino acid sequences for entries named in this document (tags omitted).
UniProt P48754: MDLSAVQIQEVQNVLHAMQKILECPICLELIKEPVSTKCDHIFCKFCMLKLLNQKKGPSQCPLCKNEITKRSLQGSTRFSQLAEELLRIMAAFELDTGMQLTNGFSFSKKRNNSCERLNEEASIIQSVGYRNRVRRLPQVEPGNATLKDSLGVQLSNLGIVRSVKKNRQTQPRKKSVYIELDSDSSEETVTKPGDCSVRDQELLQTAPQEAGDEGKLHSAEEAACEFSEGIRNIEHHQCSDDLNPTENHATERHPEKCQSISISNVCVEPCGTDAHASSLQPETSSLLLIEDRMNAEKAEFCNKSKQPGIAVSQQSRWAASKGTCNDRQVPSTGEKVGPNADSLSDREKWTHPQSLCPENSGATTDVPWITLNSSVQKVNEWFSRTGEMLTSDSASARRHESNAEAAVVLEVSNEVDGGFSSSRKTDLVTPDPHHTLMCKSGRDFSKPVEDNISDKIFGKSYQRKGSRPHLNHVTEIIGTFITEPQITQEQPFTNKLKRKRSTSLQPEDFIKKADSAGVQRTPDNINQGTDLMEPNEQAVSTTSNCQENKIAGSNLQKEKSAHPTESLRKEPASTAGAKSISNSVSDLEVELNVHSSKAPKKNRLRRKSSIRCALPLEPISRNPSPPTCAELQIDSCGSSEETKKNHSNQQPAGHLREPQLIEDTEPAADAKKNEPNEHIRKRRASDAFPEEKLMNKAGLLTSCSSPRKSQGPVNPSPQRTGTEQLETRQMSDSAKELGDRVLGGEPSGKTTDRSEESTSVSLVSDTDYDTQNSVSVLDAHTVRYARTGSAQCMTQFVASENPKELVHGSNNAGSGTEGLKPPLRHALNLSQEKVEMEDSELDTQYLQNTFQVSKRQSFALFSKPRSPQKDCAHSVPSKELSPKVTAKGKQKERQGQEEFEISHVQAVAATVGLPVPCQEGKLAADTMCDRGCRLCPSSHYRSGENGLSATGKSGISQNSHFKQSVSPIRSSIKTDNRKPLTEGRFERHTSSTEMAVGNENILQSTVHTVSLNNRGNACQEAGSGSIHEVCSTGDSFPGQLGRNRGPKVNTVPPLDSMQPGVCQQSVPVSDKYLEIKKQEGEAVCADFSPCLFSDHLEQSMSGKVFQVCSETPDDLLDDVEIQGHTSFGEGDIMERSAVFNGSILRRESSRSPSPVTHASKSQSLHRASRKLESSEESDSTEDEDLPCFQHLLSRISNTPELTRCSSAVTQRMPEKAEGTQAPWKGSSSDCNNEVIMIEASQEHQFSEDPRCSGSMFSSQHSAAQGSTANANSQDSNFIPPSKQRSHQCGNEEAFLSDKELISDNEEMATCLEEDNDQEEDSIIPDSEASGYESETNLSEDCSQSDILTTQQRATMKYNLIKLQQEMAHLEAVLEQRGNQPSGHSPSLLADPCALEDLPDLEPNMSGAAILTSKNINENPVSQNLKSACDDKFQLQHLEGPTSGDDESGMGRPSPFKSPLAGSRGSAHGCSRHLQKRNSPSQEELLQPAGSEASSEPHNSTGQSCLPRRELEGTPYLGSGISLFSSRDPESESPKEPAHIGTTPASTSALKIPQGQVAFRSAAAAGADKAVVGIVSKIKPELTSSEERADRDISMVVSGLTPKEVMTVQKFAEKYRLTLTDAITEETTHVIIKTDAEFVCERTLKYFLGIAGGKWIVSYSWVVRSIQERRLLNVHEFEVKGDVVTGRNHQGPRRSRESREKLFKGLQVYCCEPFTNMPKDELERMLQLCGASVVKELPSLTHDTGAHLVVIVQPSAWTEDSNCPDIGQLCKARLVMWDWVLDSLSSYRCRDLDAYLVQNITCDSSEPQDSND

Results are given in words; binding and its absence hold for the method and conditions named. In cells and extracts the contact can be indirect. Some entries that bind do so weakly or less than the wild type.

As to “murine Brca1 (from UniProt P48754 1-1812)”, the binding result is “binds”.
